From paper PMC8940956 come the findings set out here.

Sequences of proteins named here, by UniProt entry; tags and fusion partners are left off. Residues count along the entry.
UniProt P46531, residues 19-2555: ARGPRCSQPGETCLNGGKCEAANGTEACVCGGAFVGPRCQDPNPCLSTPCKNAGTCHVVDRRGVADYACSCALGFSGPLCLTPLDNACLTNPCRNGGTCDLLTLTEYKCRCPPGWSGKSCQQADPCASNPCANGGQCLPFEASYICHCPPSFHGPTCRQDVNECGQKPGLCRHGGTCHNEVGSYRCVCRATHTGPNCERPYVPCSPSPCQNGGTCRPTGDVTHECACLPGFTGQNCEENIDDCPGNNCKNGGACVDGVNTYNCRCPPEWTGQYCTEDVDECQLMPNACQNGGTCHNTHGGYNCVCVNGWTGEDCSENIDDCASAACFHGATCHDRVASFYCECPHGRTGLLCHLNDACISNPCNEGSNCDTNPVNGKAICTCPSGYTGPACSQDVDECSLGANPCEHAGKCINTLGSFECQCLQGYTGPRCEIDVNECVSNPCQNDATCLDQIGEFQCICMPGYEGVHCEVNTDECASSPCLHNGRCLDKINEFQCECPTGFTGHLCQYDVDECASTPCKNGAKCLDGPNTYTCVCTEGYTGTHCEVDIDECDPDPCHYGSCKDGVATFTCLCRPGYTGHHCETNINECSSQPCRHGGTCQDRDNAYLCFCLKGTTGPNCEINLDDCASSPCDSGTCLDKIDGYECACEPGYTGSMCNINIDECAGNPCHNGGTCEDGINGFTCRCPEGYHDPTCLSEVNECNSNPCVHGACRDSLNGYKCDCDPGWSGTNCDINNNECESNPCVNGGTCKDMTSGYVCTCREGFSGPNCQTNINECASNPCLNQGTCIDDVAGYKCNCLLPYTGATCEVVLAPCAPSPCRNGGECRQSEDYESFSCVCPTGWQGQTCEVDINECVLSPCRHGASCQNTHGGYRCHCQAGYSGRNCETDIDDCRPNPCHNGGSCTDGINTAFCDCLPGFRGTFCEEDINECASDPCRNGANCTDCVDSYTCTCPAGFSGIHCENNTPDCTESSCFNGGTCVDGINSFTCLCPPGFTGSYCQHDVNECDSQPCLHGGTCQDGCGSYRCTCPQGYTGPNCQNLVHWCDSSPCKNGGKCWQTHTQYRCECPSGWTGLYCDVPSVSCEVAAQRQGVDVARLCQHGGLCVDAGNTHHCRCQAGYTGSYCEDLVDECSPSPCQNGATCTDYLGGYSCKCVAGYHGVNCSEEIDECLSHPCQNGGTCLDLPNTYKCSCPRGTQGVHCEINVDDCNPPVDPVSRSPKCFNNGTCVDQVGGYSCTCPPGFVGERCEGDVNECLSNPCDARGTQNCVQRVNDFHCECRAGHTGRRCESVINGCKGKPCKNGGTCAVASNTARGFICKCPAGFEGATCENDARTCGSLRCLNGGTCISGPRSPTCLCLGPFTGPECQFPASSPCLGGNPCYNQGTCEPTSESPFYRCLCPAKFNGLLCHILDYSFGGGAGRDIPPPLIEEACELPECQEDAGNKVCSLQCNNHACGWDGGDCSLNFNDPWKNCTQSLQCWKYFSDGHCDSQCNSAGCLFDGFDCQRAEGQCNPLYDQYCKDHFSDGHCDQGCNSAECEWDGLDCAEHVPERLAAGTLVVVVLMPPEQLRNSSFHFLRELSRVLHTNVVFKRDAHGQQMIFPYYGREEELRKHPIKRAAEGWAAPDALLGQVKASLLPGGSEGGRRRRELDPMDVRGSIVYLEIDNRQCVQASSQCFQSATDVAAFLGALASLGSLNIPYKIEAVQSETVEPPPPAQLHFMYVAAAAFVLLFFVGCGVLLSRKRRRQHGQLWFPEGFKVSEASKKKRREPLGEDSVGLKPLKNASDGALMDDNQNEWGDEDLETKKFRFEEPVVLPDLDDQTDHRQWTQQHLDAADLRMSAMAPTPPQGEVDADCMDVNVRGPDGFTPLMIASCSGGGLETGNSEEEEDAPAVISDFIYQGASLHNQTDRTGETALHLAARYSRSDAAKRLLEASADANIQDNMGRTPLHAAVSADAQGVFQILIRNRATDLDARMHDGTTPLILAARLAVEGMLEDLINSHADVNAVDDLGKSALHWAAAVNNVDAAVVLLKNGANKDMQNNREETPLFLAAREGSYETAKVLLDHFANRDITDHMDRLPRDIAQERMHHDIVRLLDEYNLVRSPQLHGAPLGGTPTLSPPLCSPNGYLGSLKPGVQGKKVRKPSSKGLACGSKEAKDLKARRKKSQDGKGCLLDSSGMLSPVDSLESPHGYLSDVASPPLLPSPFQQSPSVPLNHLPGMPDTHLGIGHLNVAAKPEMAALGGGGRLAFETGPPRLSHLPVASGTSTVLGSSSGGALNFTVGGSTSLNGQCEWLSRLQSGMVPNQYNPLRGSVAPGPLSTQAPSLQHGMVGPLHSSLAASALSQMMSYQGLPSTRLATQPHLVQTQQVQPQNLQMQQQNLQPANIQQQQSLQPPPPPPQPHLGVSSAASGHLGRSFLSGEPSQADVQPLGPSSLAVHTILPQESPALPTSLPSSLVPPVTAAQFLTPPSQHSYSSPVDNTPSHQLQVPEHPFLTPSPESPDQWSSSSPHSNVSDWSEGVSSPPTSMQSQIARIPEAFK
UniProt Q01705, residues 19-2531: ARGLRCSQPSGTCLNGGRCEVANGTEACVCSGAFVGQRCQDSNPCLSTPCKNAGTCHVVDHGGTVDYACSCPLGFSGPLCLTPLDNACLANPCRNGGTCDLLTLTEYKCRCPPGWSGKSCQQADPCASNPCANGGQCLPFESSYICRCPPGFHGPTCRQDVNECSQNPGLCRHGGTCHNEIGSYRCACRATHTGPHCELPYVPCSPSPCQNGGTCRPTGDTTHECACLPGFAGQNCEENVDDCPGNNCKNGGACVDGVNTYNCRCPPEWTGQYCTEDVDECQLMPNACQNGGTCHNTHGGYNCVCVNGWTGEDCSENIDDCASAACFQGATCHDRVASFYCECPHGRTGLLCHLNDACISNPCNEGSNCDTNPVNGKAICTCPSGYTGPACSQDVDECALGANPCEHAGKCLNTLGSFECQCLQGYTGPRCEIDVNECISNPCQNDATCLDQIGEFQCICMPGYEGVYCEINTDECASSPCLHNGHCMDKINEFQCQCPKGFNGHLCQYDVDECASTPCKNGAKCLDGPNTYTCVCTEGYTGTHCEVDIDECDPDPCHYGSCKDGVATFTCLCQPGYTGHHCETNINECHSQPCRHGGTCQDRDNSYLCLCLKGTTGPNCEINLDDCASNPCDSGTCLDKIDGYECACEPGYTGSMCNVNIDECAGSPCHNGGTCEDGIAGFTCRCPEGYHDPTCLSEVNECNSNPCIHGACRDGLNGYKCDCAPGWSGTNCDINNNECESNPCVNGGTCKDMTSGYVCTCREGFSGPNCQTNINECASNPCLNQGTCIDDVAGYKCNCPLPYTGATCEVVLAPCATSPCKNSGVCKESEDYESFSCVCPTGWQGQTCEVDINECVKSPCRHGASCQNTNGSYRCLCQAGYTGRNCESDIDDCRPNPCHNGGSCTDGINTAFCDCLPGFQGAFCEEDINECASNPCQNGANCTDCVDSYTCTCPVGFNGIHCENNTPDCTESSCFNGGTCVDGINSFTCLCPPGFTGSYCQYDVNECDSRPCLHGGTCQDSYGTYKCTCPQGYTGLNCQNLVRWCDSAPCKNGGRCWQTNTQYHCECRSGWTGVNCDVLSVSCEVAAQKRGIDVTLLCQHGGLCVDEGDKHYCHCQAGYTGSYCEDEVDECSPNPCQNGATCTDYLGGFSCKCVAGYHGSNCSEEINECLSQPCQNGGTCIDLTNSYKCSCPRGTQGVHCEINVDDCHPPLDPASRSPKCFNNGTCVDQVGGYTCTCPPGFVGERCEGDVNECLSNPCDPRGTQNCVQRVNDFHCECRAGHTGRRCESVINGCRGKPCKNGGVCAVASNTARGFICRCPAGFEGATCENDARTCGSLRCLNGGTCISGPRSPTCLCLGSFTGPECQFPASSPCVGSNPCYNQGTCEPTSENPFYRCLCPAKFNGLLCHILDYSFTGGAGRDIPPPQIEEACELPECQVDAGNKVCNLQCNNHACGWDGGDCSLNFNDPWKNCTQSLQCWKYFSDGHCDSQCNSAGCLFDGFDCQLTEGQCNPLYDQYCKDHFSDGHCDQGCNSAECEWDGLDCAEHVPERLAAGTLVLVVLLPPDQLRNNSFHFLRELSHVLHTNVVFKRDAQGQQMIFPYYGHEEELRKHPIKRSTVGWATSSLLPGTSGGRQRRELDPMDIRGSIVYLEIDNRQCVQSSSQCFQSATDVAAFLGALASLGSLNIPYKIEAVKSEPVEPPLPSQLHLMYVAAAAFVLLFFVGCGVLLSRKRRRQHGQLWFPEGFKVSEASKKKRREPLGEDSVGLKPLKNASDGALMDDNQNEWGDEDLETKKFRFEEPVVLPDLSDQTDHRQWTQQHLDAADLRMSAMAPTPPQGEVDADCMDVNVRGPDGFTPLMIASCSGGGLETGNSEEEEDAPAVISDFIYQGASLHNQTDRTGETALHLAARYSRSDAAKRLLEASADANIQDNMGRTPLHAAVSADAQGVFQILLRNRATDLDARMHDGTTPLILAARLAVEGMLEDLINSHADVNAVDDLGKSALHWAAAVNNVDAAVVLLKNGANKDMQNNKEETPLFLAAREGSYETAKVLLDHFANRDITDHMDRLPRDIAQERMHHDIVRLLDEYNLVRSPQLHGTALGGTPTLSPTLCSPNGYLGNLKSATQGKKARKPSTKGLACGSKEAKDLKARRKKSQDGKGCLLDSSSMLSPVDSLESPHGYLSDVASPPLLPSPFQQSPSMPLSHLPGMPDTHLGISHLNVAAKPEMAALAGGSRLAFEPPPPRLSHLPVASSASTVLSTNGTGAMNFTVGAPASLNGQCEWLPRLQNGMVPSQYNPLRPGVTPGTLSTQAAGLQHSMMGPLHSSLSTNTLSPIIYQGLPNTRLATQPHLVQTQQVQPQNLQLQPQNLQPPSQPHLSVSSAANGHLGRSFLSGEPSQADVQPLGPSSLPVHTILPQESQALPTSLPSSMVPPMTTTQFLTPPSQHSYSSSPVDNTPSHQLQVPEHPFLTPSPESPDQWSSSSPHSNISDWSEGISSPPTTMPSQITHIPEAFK

Results are given in words; binding and its absence hold for the method and conditions named. In cells and extracts the contact can be indirect. Some entries that bind do so weakly or less than the wild type.

For experiment [1], the target named is Notch1 (in the co-IP tested for GIT2; lysate not told) (UniProt P46531). In words: co-IP; co-IP with Notch1 probed for GIT2 (Supplementary Fig. 9); lysate not given.
The target of experiment [2] is Notch1, endogenous, mouse organs (mouse (endogenous in mouse organs)) (UniProt Q01705). In words: co-IP; endogenous proteins; co-IP of GIT1 with Notch1 from lysates of mouse organs and of human breast cell lines (184A1, MDA-MB-231); 6 ug antibody 1 h at 4 °C, Protein G Sepharose overnight; lysis buffer A (10 mM HEPES pH 7.4, 100 mM NaCl, 2 mM EDTA, 1 mM 2-mercaptoethanol, 0.5% Triton X-100); washed with buffer A + 50 mM NaCl.

B1: GIT2 (protein, UniProt Q14161 1-759)
chain: MSKRLRSSEVCADCSGPDPSWASVNRGTFLCDECCSVHRSLGRHISQVRHLKHTPWPPTLLQMVETLYNNGANSIWEHSLLDPASIMSGRRKANPQDKVHPNKAEFIRAKYQMLAFVHRLPCRDDDSVTAKDLSKQLHSSVRTGNLETCLRLLSLGAQANFFHPEKGNTPLHVASKAGQILQAELLAVYGADPGTQDSSGKTPVDYARQGGHHELAERLVEIQYELTDRLAFYLCGRKPDHKNGQHFIIPQMADSSLDLSELAKAAKKKLQSLSNHLFEELAMDVYDEVDRRETDAVWLATQNHSALVTETTVVPFLPVNPEYSSTRNQGRQKLARFNAHEFATLVIDILSDAKRRQQGSSLSGSKDNVELILKTINNQHSVESQDNDQPDYDSVASDEDTDLETTASKTNRQKSLDSDLSDGPVTVQEFMEVKNALVASEAKIQQLMKVNNNLSDELRIMQKKLQTLQSENSNLRKQATTNVYQVQTGSEYTDTSNHSSLKRRPSARGSRPMSMYETGSGQKPYLPMGEASRPEESRMRLQPFPAHIGRSALVTSSSSLPSFPSTLSWSRDESARRASRLEKQNSTPESDYDNTPNDMEPDGMGSSRKGRQRSMVWPGDGLVPDTAEPHVAPSPTLPSTEDVIRKTEQITKNIQELLRAAQENKHDSYIPCSERIHVAVTEMAALFPKKPKSDMVRTSLRLLTSSAYRLQSECKKTLPGDPGSPTDVQLVTQQVIQCAYDIAKAAKQLVTITTKENNN
Turning to B1, the binding entry in experiment [1] is on record as “no binding”.

B2: G protein-coupled receptor kinase-interacting protein 1 (GIT1), endogenous, mouse organs (protein, UniProt Q68FF6 1-770)
chain: MSRKGPRAEVCADCSAPDPGWASISRGVLVCDECCSVHRSLGRHISIVKHLRHSAWPPTLLQMVHTLASNGANSIWEHSLLDPAQVQSGRRKANPQDKVHPIKSEFIRAKYQMLAFVHKLPCRDDDGVTAKDLSKQLHSSVRTGNLETCLRLLSLGAQANFFHPEKGTTPLHVAAKAGQTLQAELLVVYGADPGSPDVNGRTPIDYARQAGHHELAERLVECQYELTDRLAFYLCGRKPDHKNGHYIIPQMADRSRQKCMSQSLDLSELAKAAKKKLQALSNRLFEELAMDVYDEVDRRENDAVWLATQNHSTLVTERSAVPFLPVNPEYSATRNQGRQKLARFNAREFATLIIDILSEAKRRQQGKSLSSPTDNLELSARSQSELDDQHDYDSVASDEDTDQEPLPSAGATRNNRARSMDSSDLSDGAVTLQEYLELKKALATSEAKVQQLMKVNSSLSDELRRLQREIHKLQAENLQLRQPPGPVPPPSLPSERAEHTLMGPGGSTHRRDRQAFSMYEPGSALKPFGGTPGDELATRLQPFHSTELEDDAIYSVHVPAGLYRIRKGVSASSVPFTPSSPLLSCSQEGSRHASKLSRHGSGADSDYENTQSGDPLLGLEGKRFLELSKEDELHPELESLDGDLDPGLPSTEDVILKTEQVTKNIQELLRAAQEFKHDSFVPCSEKIHLAVTEMASLFPKRPALEPVRSSLRLLNASAYRLQSECRKTVPPEPGAPVDFQLLTQQVIQCAYDIAKAAKQLVTITTREKKQ
Consider B2, for which the binding entry in experiment [2] is listed as “binds”.
